Patent US9763954B2, “Therapeutical uses of eslicarbazepine” (BIAL-PORTELA & CA, S.A., priority 2007, dated 2017)
At least one read-out could not be matched to a standard name with certainty. For at least one compound, name, drawing or mass did not settle the structure. Some entries share one result that the patent states for a list of compounds.

Assay: Plasma pharmacokinetics after oral administration to CD-1 mice
Format: in vivo
Details: for time at which Cmax in plasma is attained (tmax): oral administration of the same enantiomer
Text: The following pharmacokinetic parameters for S-licarbazepine and R-licarbazepine were derived by non-compartmental analysis from the concentration versus time profiles: maximum observed plasma drug concentration (Cmax), time at which the Cmax occurred (tmax), area under the plasma concentration versus time curve (AUC) from time zero to the last sampling time at which concentrations were at or above the limit of quantification (AUC0-t) and AUC from time zero to infinity (AUC0-∞), elimination half-life (t1/2) and mean residence time (MRT). The pharmacokinetic parameters were determined using WinNonlin (version 4.0). Summary statistics of all data for each treatment and scheduled sampling times were reported, as appropriate, using the geometric mean, arithmetic mean, standard deviation (SD), coefficient of variation (CV), median, minimum and maximum. The statistical package SAS Version 8.2 or higher (SAS Institute, Cary, USA) was used in all computations when considered appropriate.

SMILES | mean residence time (MRT) (approximate range stated for both enantiomers) | time at which Cmax in plasma is attained (tmax)
NC(=O)N1c2ccccc2C[C@@H](O)c2ccccc21 [R-licarbazepine] | 600 to 720 min | 15 min
NC(=O)N1c2ccccc2C[C@H](O)c2ccccc21 [S-licarbazepine, (S)-(+)-10,11-dihydro-10-hydroxy-5H dibenz/b,f/azepine-5-carboxamide] |  | 15 min
